Assay results: the supplement of paper PMC4604168 (melanoma cell lines)
The list shows a part of the results. Single values are uncertain, as repeats are few or missing.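 The apoptosis fraction was the count of cleaved-PARP antibody-stained nuclei relative to all DNA-stained nuclei, imaged in 1,536-well plates. Screening doses were set so most cells survived, and baseline and induced cleaved-PARP levels vary greatly across cell lines.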

Experiments:
Assay in all cases: cleaved PARP positive nuclei fraction relative to DMSO control; melanoma cells; higher = more apoptosis
Details in all cases: library dose: low library concentration; 72 h
[1] = system: MZ2-MEL
[2] = system: MeWo
[3] = system: RPMI7951
[4] = system: RVH-421
[5] = system: SkMel28
[6] = system: SkMel30
[7] = system: SkMel5
[8] = system: UACC257
[9] = system: UACC62
[10] = system: WM115
[11] = system: WM1716
[12] = system: WM1745
[13] = system: WM3526
[14] = system: WM3619
[15] = system: WM451Lu
[16] = system: SkMel2

Compound	cleaved PARP positive nuclei fraction [1]	cleaved PARP positive nuclei fraction [2]	cleaved PARP positive nuclei fraction [3]	cleaved PARP positive nuclei fraction [4]	cleaved PARP positive nuclei fraction [5]	cleaved PARP positive nuclei fraction [6]	cleaved PARP positive nuclei fraction [7]	cleaved PARP positive nuclei fraction [8]	cleaved PARP positive nuclei fraction [9]	cleaved PARP positive nuclei fraction [10]	cleaved PARP positive nuclei fraction [11]	cleaved PARP positive nuclei fraction [12]	cleaved PARP positive nuclei fraction [13]	cleaved PARP positive nuclei fraction [14]	cleaved PARP positive nuclei fraction [15]	cleaved PARP positive nuclei fraction [16]
CO[C@H]1C[C@@H]2CC[C@@H](C)[C@@](O)(O2)C(=O)C(=O)N2CCCC[C@H]2C(=O)O[C@H]([C@H](C)C[C@@H]2CC[C@@H](OCCO)[C@H](OC)C2)CC(=O)[C@H](C)/C=C(\C)[C@@H](O)[C@@H](OC)C(=O)[C@H](C)C[C@H](C)/C=C/C=C/C=C/1C [everolimus] + O=C(O)c1ccc(-c2c[nH]c3ncc(-c4ccccc4)cc23)cc1C1CCCC1 [GSK650394] (first compound 0.02 µM, partner dose 0.16 µM)	122%	188%	154%	96.8%	173%	87.4%	123%	553%	501%	147%	45.6%	89%	32.7%	116%	84.2%	–
CO[C@H]1C[C@@H]2CC[C@@H](C)[C@@](O)(O2)C(=O)C(=O)N2CCCC[C@H]2C(=O)O[C@H]([C@H](C)C[C@@H]2CC[C@@H](OCCO)[C@H](OC)C2)CC(=O)[C@H](C)/C=C(\C)[C@@H](O)[C@@H](OC)C(=O)[C@H](C)C[C@H](C)/C=C/C=C/C=C/1C [everolimus] + Cn1cc(/C=C2\C(=O)Nc3cccnc32)c2ccccc21 [GW441756] (first compound 0.02 µM, partner dose 0.4 µM)	206%	55.1%	146%	159%	293%	239%	97.8%	471%	341%	157%	186%	108%	70.8%	116%	163%	–
CO[C@H]1C[C@@H]2CC[C@@H](C)[C@@](O)(O2)C(=O)C(=O)N2CCCC[C@H]2C(=O)O[C@H]([C@H](C)C[C@@H]2CC[C@@H](OCCO)[C@H](OC)C2)CC(=O)[C@H](C)/C=C(\C)[C@@H](O)[C@@H](OC)C(=O)[C@H](C)C[C@H](C)/C=C/C=C/C=C/1C [everolimus] + O=C(Nc1ccccc1)c1cc([N+](=O)[O-])ccc1Cl [GW9662] (first compound 0.02 µM, partner dose 2 µM)	73.3%	142%	83.9%	79.7%	193%	219%	68.6%	202%	105%	232%	309%	105%	106%	158%	83.7%	–
O=C(O)[C@@H]1[O][Sb](=[O])([O][Sb]2(=[O])[O][C@H]([C@H](O)CO)[C@H](O)[C@H](C(=O)O)[O]2)[O][C@H]([C@H](O)CO)[C@@H]1O (some centres undefined) [stibogluconate] + Clc1ccc(Nc2nnc(Cc3ccncc3)c3ccccc23)cc1 [vatalanib] (first compound 2 µM, partner dose 2 µM)	106%	65.2%	42.5%	50.4%	111%	41.8%	–	–	80.9%	82.3%	70.6%	99.9%	71.4%	85.1%	81.5%	–
Cn1c(=O)n(-c2ccc(C(C)(C)C#N)cc2)c2c3cc(-c4cnc5ccccc5c4)ccc3ncc21 + CN1CCN(c2ccc3nc(-c4c(N)c5c(F)cccc5[nH]c4=O)[nH]c3c2)CC1 [Dovitinib] (first compound 0.004 µM, partner dose 0.1 µM)	39.7%	132%	148%	931%	52.3%	105%	–	–	31.2%	124%	81.6%	82.1%	111%	98%	77.9%	–
Cc1cc(Nc2cc(N3CCN(C)CC3)nc(/C=C/c3ccccc3)n2)n[nH]1 + NCC(=O)Nc1ccc(-n2nc(C(F)(F)F)cc2-c2ccc3c(ccc4ccccc43)c2)cc1 [OSU03012] (first compound 0.04 µM, partner dose 1 µM)	–	62.2%	78.2%	66.5%	305%	136%	225%	141%	210%	88.4%	90.3%	85.7%	115%	124%	112%	74%
O=C(O)[C@@H]1[O][Sb](=[O])([O][Sb]2(=[O])[O][C@H]([C@H](O)CO)[C@H](O)[C@H](C(=O)O)[O]2)[O][C@H]([C@H](O)CO)[C@@H]1O (some centres undefined) [stibogluconate] + O=S(=O)(c1ccccc1)N(CC(F)(F)F)c1ccc(C(O)(C(F)(F)F)C(F)(F)F)cc1 [T0901317] (first compound 2 µM, partner dose 1.4 µM)	–	97.9%	35.7%	41%	111%	48.6%	70.5%	131%	117%	130%	146%	113%	150%	86.1%	42.5%	65.5%
CO[C@H]1C[C@@H]2CC[C@@H](C)[C@@](O)(O2)C(=O)C(=O)N2CCCC[C@H]2C(=O)O[C@H]([C@H](C)C[C@@H]2CC[C@@H](OCCO)[C@H](OC)C2)CC(=O)[C@H](C)/C=C(\C)[C@@H](O)[C@@H](OC)C(=O)[C@H](C)C[C@H](C)/C=C/C=C/C=C/1C [everolimus] + COc1ccc(Cl)c(Nc2nc3ccccc3nc2NS(=O)(=O)c2cccc(NC(=O)C(C)(C)N)c2)c1 [XL147] (first compound 0.02 µM, partner dose 0.8 µM)	79.6%	462%	109%	97.2%	160%	21.3%	–	–	448%	52%	123%	93.7%	98.1%	107%	62.1%	–
